The text below walks through data of patent US20140011747A1 (WISCONSIN ALUMNI RESEARCH FOUNDATION, published 2014).

Protein sequences, listed by entry. Tags and fused reporters are not part of them. Lines headed by an entry give the natural chain unless they say otherwise; changes in a name come on top.
UniProt P23229: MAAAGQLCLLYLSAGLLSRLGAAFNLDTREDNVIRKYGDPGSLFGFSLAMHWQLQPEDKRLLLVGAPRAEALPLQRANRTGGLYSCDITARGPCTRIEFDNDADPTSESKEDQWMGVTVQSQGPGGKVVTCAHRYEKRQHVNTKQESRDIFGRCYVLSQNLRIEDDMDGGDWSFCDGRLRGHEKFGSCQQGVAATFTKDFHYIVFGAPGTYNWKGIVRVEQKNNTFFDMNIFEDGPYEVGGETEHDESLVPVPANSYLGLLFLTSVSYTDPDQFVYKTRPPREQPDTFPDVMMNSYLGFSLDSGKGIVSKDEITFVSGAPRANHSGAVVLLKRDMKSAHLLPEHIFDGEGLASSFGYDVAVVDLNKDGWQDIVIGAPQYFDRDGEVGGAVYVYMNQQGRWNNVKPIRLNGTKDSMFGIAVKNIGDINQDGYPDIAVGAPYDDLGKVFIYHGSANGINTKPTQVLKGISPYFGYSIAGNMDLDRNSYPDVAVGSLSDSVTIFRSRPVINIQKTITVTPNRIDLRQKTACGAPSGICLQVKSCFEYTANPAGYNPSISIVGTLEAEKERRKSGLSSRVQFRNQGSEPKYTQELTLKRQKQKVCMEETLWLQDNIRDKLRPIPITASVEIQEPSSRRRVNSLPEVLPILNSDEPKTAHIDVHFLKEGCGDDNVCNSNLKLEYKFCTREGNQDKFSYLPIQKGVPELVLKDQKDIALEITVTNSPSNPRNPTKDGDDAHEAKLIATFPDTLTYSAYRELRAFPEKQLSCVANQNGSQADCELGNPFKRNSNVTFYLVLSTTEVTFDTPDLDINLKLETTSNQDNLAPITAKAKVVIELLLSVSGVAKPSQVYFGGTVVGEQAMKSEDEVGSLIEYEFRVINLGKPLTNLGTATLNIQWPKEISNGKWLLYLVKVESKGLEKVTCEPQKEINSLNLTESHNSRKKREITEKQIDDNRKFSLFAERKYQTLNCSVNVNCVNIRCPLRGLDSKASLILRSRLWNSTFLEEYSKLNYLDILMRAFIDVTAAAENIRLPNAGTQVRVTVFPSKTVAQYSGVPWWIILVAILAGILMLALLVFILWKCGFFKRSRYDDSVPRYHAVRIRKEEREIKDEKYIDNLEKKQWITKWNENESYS

Test [1] deals with T1, GST-S4CD, Sdc4 cytoplasmic domain fused to GST.
T1 sequence: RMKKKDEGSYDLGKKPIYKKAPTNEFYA
In words: binding of β4 cytoplasmic domain mutants to syndecan.

In test [2] the target is T2, α6β4 integrin, endogenous in human cell lines (human) (UniProt P23229+P16144). Nature of the test: co-immunoprecipitation from cell lysates.
For test [3], the target named is T2, α6β4 integrin, endogenous in human cell lines (human). Nature of the test: co-immunoprecipitation from cell lysates, western blot. On the technique in general: In western blotting, separated proteins are transferred to a membrane and probed.
Test [4] has the same target. In words: co-immunoprecipitation from lysates of HNSCC cells, western blot.
For test [5], the target named is epidermal growth factor receptor (EGFR), endogenous in human cell lines (human) (UniProt P00533). In words: capture from cell lysate on glutathione beads, western blot.
Test [6] has as its target T2, α6β4 integrin, endogenous in human cell lines (human). The test is described as above.
In test [7] the target is epidermal growth factor receptor (EGFR), endogenous in human cell lines (human) (UniProt P00533). Nature of the test: capture from lysates of EGF-stimulated A431 cells on glutathione beads, western blot.

No constants are given. Whether binding was seen depends on the method and setting. For some assays here: In cells and extracts the contact can be indirect. Some binding calls cover weakened binding; strength is not graded here. For some assays here: Where a sequence is shown, tags or fusion partners need not be part of it.

B1: β4^R1733A mutant of the β4 cytoplasmic domain (binding construct) (protein, human, UniProt P16144-2 1677-1752, looked up, not shown: small tags and cut ends)
chain: SRAGLFQHPLQSEYSSITTTHTSATEPFLVDGLTLGAQHLEAGGSLTRHVTQEFVSATLTTSGTLSTHMDQQFFQT
Consider B1, for which the binding entry in test [1] is recorded as “binds”.

B2: syndecan-4 (Sdc4), human, endogenous in human cell lines (receptor)
chain: ESIRETEVIDPQDLLEGRYFSGALPDDEDVVGPGQESDDFELSGSGDLDDLEDSMIGPEVVHPLVPLDNHIPERAGSGSQVPTEPKKLEENEVIPKRISPVEESEDVSNKVSMSSTVQGSNIFERTEVLAALIVGGIVGILFAVFLILLLMYRMKKKDEGSYDLGKKPIYKKAPTNEFYA
Take B2: the binding entry in test [2], in test [3] and in test [4] was “binds” in each case.

B3: syndecan-1 (Sdc1), human, endogenous in human cell lines (receptor, UniProt P18827 23-310, looked up)
chain: QIVATNLPPEDQDGSGDDSDNFSGSGAGALQDITLSQQTPSTWKDTQLLTAIPTSPEPTGLEATAASTSTLPAGEGPKEGEAVVLPEVEPGLTAREQEATPRPRETTQLPTTHLASTTTATTAQEPATSHPHRDMQPGHHETSTPAGPSQADLHTPHTEDGGPSATERAAEDGASSQLPAAEGSGEQDFTFETSGENTAVVAVEPDRRNQSPVDQGATGASQGLLDRKEVLGGVIAGGLVGLIFAVCLVGFMLYRMKKKDEGSYSLEEPKQANGGAYQKPTKQEEFYA
notes: whole, on cells; Used as the comparison for Sdc4 in co-immunoprecipitation
Take B3: the binding result in test [3] is “binds”.

B4: GST-S4ED, recombinant Sdc4 ectodomain fused to GST (other, UniProt P31431 19-145, looked up, not shown: a dimerising Fc or GST)
chain: ESIRETEVIDPQDLLEGRYFSGALPDDEDVVGPGQESDDFELSGSGDLDDLEDSMIGPEVVHPLVPLDNHIPERAGSGSQVPTEPKKLEENEVIPKRISPVEESEDVSNKVSMSSTVQGSNIFERTE
As to B4, the binding entry in test [5], in test [6] and in test [7] was “binds” throughout.
